Test results from patent US7977455 (dated 2011).

Experiment: general procedure: Boc solid-phase peptide synthesis; MBHA resin (Peninsula), 0.91 mmol/g; PAM resin for C-terminal acids; HBTU/DIEA
Details: whole synthesis, analytical HPLC, scale of the general procedure 0.20 mmol

Substance	final HPLC purity [%]
(Aib^8, β-Ala^35, Ser^37(O-decanoyl))hGLP-1(7-37)NH2	99
(Aib^8, Leu^27, β-Ala^35)hGLP-1(7-36)NH2	99
(Aib^8,35)hGLP-1(7-36)NH2	94
(Aib^8, Lys^18, β-Ala^35)hGLP-1(7-36)NH2	97
(Aib^8,35, Lys^25, Arg^26,34, Lys^36(N^ε-decanoyl))hGLP-1(7-36)OH	95
(Aib^8,35, Nal^31)hGLP-1(7-36)NH3	99
(Aib^8,35, Arg^26,34, Phe^31)hGLP-1(7-36)NH2	99
(Aib^8, Lys^33, β-Ala^35)hGLP-1(7-36)NH2	97.70
(Aib^8, D-Arg^35)hGLP-1(7-36)NH2	99
(Aib^8,35, Nal^28,31)hGLP-1(7-36)NH2	99
(Aib^8, Lys^18, Leu^27, β-Ala^35)hGLP-1(7-36)NH2	97.20
(Aib^8,35, Arg^26,34, Asp^37, Ava^38, Ado^39)hGLP-1(7-39)NH2	98
(Aib^8, Arg^26,34, β-Ala^35, D-Asp^37, Ava^38, Aun^39)hGLP-1(7-39)NH2	94
(Aib^8,27, β-Ala^35)hGLP-1(7-36)NH2	98
(Aib^8, Arg^26,34, β-Ala^35, Lys^37(N^ε-dodecanoyl))hGLP-1(8-37)NH2	99
(Aib^8, β-Ala^35, Arg^38)hGLP-1(7-38)NH2	93
(Aib^8,35, Arg^26,34, Ava^37, Ado^38)hGLP-1(7-38)NH2	98
(Aib^8, Lys^18,27, β-Ala^35)hGLP-1(7-36)NH2	97
(Aib^8,35, Arg^26,34,)hGLP-1(7-36)NH2	96
(Aib^8,35, Glu^23, A6c^32)hGLP-1(7-36)NH2	97
(Aib^8, Lys^27, β-Ala^35)hGLP-1(7-36)NH2	95
(Gly^8, Aib^35)hGLP-1(7-36)NH2	93
(Aib^8,35, Nal^12,31)hGLP-1(7-36)NH2	99
(Aib^8,24,35)hGLP-1(7-36)NH2	99
(Aib^8,35, A6c^32)hGLP-1(7-36)NH2	88
(Aib^8,27, β-Ala^35,37, Arg^38,39)hGLP-1(7-39)NH2	99
(Aib^8, Glu^23, β-Ala^35)hGLP-1(7-36)NH2	99

Substance	final HPLC purity [%]
(Aib^8,35, Arg^26,34, Nal^31)hGLP-1(7-36)NH2	99
(Aib^8,35, Arg^26,34, Aun^37)hGLP-1(7-37)NH2	97.90
(Aib^8, Arg^26,34, β-Ala^35)hGLP-1(7-36)NH2	97
(Ser^8, β-Ala^35)hGLP-1(7-36)NH2	98
(Gly^8: β-Ala^35)hGLP-1(7-36)NH2	99
(Aib^8, Glu^22,23, β-Ala^35)hGLP-1(7-36)NH2	97.50
(Aib^8,25,35)hGLP-1(7-36)NH2	99
(Aib^8, Phe^31, β-Ala^35)hGLP-1(7-36)NH2	99.20
(Aib^8, Arg^26,34, β-Ala^35, Lys^37(N^ε-decanoyl))hGLP-1(7-37)NH2	99
(Aib^8, Arg^26,34, β-Ala^35, Lys^37(N^ε-tetradecanoyl))hGLP-1(7-37)NH2	99
(Aib^8,35, Arg^34, Lys^26(N^ε-decanoyl))hGLP-1(7-36)NH2	93
((Nα-HEPES-His)^7, Aib^8,35)hGLP-1(7-36)NH2	99
(Aib^8,35, Nal^19,31)hGLP-1(7-36)NH2	94
(Aib^8,35, Glu^23)hGLP-1(7-36)NH2	99
(Aib^8,35, Phe^31)hGLP-1(7-36)NH2	93
(Aib^8,35, Lys^36(N^ε-decanoyl))hGLP-1(7-36)NH2	97.40
(Aib^8,27, β-Ala^35,37, Arg^38, Lys^39(N^ε-octanoyl))hGLP-1(7-39)NH2	95
(Aib^8,35, Arg^26,34, Lys^36(N^ε-dodecanoyl))hGLP-1(7-36)NH2	98
(Aib^8,35, Arg^26,34, Lys^36(N^ε-decanoyl))hGLP-1(7-36)OH	99
(Aib^8,35, Arg^26,34, Lys^36(N^ε-octanoyl))hGLP-1(7-36)NH2	99
(Aib^8,27, β-Ala^35,37, Arg^38)hGLP-1(7-38)NH2	99.40
(Aib^8, Arg^26,34, β-Ala^35, Lys^37(N^ε-dodecanoyl))hGLP-1(7-37)NH2	99
(Aib^8, D-Arg^36)hGLP-1(7-36)NH2	92
(Aib^8, β-Ala^35, Arg^37)hGLP-1(7-37)NH2	90
(Aib^8, Arg^26,34, β-Ala^35, Lys^37(N^ε-octanoyl))hGLP-1(7-37)NH2	99
(Aib^8, β-Ala^35, D-Arg^37)hGLP-1(7-37)NH2	94.30
